Results deposited as PubChem BioAssay AID686938 (Drosophila RNAi Screening Center, 2013).

Test: 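Fly genes required for calcium entry once internal stores are emptied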 (primary screen)
Cells: Drosophila S2R+ cells
Knock-down reagent: long dsRNA against Drosophila genes, about 0.25 µg dsRNA per well, roughly 10,000 cells
Duration: 5 days of knock-down before the calcium assay
Conditions: thapsigargin (SERCA pump blocker) to empty calcium stores; entry signal taken 4 min after adding it
Read-out: 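Per-well fluo-4 fluorescence in two replicates, unnormalised, measured in resting cells and 4 min after store depletion by the SERCA blocker thapsigargin; ratio of the two present in few wells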
Reading the numbers: calcium entry signal: higher = stronger calcium signal after store depletion; entry to resting ratio: higher = more calcium entry relative to resting level; resting calcium signal: higher = higher resting calcium signal
Active means: 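Called when the plate z-score of the entry-to-rest ratio, mean of duplicates, falls below −3; wells with low overall dye signal (Fmax z below −2) or more than five off-targets excluded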
Meaning of the calls: active = strongly reduced calcium entry; inactive = no strong reduction
The deposit covers about 23,000 reagents; this is a random part of those with a known target gene and a result. Over the whole deposit, 75 (0.33%) are marked active. 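Raw plate signals without normalisation; calls rest on plate z-scores that were not deposited; ratio present for only 364 wells.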 The numbers tell different reagents against one gene apart. A plus sign joins genes that one reagent is predicted to hit. Not stated in the record: the dose of the treatment.

no.	target gene	reagent no.	calcium entry signal, replicate 1 (fluorescence units)	calcium entry signal, replicate 2 (fluorescence units)	entry to resting ratio	resting calcium signal, replicate 1 (fluorescence units)	resting calcium signal, replicate 2 (fluorescence units)	Outcome
1	Srp14	1	3.91e7	4.11e7		5.65e7	1.79e7	inactive
2	E(spl)m2-BFM	1	4.28e7	5.59e7		2.65e7	2.77e7	inactive
3	E(spl)m2-BFM	2	4.34e7	3.14e7		2.12e7	1.46e7	inactive
4	Cnx14D	1	2.18e7	2.55e7		1.22e7	1.17e7	inactive
5	rad (retired record)	1	3.25e7	3.97e7		1.41e7	1.78e7	inactive
6	rad (retired record)	2	4.44e7	4.20e7		2.15e7	1.97e7	inactive
7	rad (retired record)	3	3.63e7	4.81e7		2.39e7	3.37e7	inactive
8	rad (retired record)	4	1.64e7	4.04e7		8.60e6	1.77e7	inactive
9	GABA-B-R2	1	2.55e7	3.91e7		1.29e7	1.88e7	inactive
10	Pp2C1	1	3.14e7	2.61e7		1.52e7	1.36e7	inactive
11	Pp2C1	2	3.83e7	4.67e7		1.93e7	2.07e7	inactive
12	ssp5	1	2.91e7	3.82e7		1.31e7	1.70e7	inactive
13	AP-2alpha	1	4.39e7	4.67e7		2.16e7	1.93e7	inactive
14	CG17167	1	2.92e7	4.05e7		1.52e7	1.66e7	inactive
15	CG17167	2	3.69e7	3.20e7		1.74e7	1.52e7	inactive
16	MICU1	1	4.14e7			2.23e7		inactive
17	elav	1	5.08e7	4.87e7		2.23e7	2.35e7	inactive
18	Acp63F	1	3.51e7	4.20e7		1.79e7	1.80e7	inactive
19	CG7966	1	4.05e7	4.43e7		1.58e7	1.91e7	inactive
20	Hdc	1	4.71e7	4.41e7		1.95e7	1.95e7	inactive
21	Abcd1	1	4.85e7	4.56e7		2.11e7	2.07e7	inactive
22	CG7458	1	3.24e7	4.30e7		1.58e7	1.83e7	inactive
23	CG7458	2	2.64e7	3.50e7		1.25e7	1.61e7	inactive
24	Acyp2	1	2.94e7	5.25e7		1.45e7	6.41e7	inactive
25	EcR	1	4.18e7	4.79e7		2.24e7	2.45e7	inactive
26	EcR	2	3.32e7			1.72e7		inactive
27	CG43795 + SkpF	1	3.35e7	3.92e7		1.82e7	1.67e7	inactive
28	cert	1	4.08e7	2.69e7		2.78e7	1.13e7	inactive
29	CROT	1	3.47e7	4.63e7		1.67e7	2.05e7	inactive
30	CROT	2	2.61e7	4.21e7		1.40e7	1.59e7	inactive
31	Acox57D-d	1	3.98e7			2.06e7		inactive
32	sls	1	4.26e7	3.56e7		1.95e7	1.90e7	inactive
33	sls	2	1.86e7	2.58e7		1.12e7	1.31e7	inactive
34	sls	3	2.98e7	3.31e7		1.42e7	1.51e7	inactive
35	Lgr4	1	3.22e7	3.71e7		1.54e7	1.64e7	inactive
36	Lgr4	2	4.10e7	3.20e7		2.09e7	1.60e7	inactive
37	Lgr4	3	4.44e7	5.95e7		2.03e7	2.88e7	inactive
38	CG5026	1	4.35e7	2.74e7		2.89e7	1.23e7	inactive
39	CycA	1	3.27e7	5.44e7		2.09e7	3.45e7	active
40	CycA	2	3.61e7	4.93e7		2.14e7	3.80e7	inactive
41	Df31	1	3.93e7	3.62e7		1.95e7	1.66e7	inactive
42	Df31	2	2.96e7	3.84e7		1.53e7	1.86e7	inactive
43	CG42633	1	4.23e7	3.50e7		2.13e7	1.83e7	inactive
44	Hrb87F	1	3.00e7	3.36e7		1.21e7	1.53e7	inactive
45	Pbp45	1	2.73e7	3.79e7		1.40e7	5.66e7	inactive
46	sky	1	3.26e7			1.61e7		inactive
47	sky	2	2.98e7			1.36e7		inactive
48	sky	3	4.64e7	4.94e7		2.33e7	2.06e7	inactive
49	pds5	1	3.30e7	3.20e7		1.73e7	1.64e7	inactive
50	lilli	1	3.32e7	4.18e7		2.11e7	1.91e7	inactive
51	CG9014	1	4.83e7	2.97e7		2.12e7	1.39e7	inactive
52	CG10949	1	3.84e7			2.11e7		inactive
53	CG15576	1	3.53e7	4.15e7		1.49e7	1.79e7	inactive
54	Skel	1	3.55e7	3.36e7		1.64e7	1.72e7	inactive
55	Skel	2	3.29e7	4.38e7		1.52e7	1.90e7	inactive
56	inaE	1	1.97e7	2.71e7		1.11e7	1.24e7	inactive
57	inaE	2	2.15e7	3.16e7		1.05e7	1.48e7	inactive
58	inaE	3	1.60e7	4.04e7		9.84e6	1.98e7	inactive
59	inaE	4	2.40e7	2.48e7		1.33e7	1.12e7	inactive
60	Jon65Aiii	1	3.53e7	2.68e7		2.44e7	1.15e7	inactive
61	jvl	1	5.01e7	5.01e7		2.55e7	2.36e7	inactive
62	jvl	2	2.95e7	4.22e7		1.33e7	1.71e7	inactive
63	kri	1	3.37e7	2.55e7		2.39e7	1.21e7	inactive
64	Or98P	1	3.10e7	4.01e7		1.42e7	1.70e7	inactive
65	Prp18	1	2.15e7	1.89e7		1.19e7	1.09e7	inactive
66	CG17258	1	2.02e7	1.83e7		1.15e7	8.85e6	inactive
67	CG17258	2	4.01e7	3.87e7		2.04e7	1.65e7	inactive
68	Mgat1	1	2.16e7	3.07e7		1.08e7	1.40e7	inactive
69	CG15353	1	2.21e7	6.44e7		1.13e7	3.30e7	inactive
70	Rnb	1	3.33e7	4.39e7		1.50e7	1.91e7	inactive
71	CG10904	1	3.92e7	3.98e7		1.91e7	1.94e7	inactive
72	CG34040	1	2.57e7	4.86e7		1.18e7	2.00e7	inactive
73	Tl	1	4.10e7	4.94e7		1.78e7	2.13e7	inactive
74	Rbcn-3B	1	4.26e7	6.47e7	1.4	2.97e7	4.05e7	inactive
75	lncRNA:iab8	1	3.07e7	3.59e7		2.06e7	1.98e7	inactive
76	lncRNA:iab8	2	2.00e7	5.11e7		1.04e7	2.39e7	inactive

Laid out differently: results already given
target gene | reagent no. | calcium entry signal, replicate 1 (fluorescence units) | calcium entry signal, replicate 2 (fluorescence units) | entry to resting ratio | resting calcium signal, replicate 1 (fluorescence units) | resting calcium signal, replicate 2 (fluorescence units) | Outcome
Abcd1 | 1 | 4.85e7 | 4.56e7 | – | 2.11e7 | 2.07e7 | inactive
CG7458 | 1 | 3.24e7 | 4.30e7 | – | 1.58e7 | 1.83e7 | inactive
CG7458 | 2 | 2.64e7 | 3.50e7 | – | 1.25e7 | 1.61e7 | inactive
Acyp2 | 1 | 2.94e7 | 5.25e7 | – | 1.45e7 | 6.41e7 | inactive
EcR | 1 | 4.18e7 | 4.79e7 | – | 2.24e7 | 2.45e7 | inactive
EcR | 2 | 3.32e7 | – | – | 1.72e7 | – | inactive
CG43795 + SkpF | 1 | 3.35e7 | 3.92e7 | – | 1.82e7 | 1.67e7 | inactive
cert | 1 | 4.08e7 | 2.69e7 | – | 2.78e7 | 1.13e7 | inactive
CROT | 1 | 3.47e7 | 4.63e7 | – | 1.67e7 | 2.05e7 | inactive
